Test results reported in article PMC9287719.
Results are given in words; binding and its absence hold for the method and conditions named.

By UniProt entry, the sequences of proteins in these tests, tags left out. Residues count along the entry.
UniProt P08637, residues 17-208: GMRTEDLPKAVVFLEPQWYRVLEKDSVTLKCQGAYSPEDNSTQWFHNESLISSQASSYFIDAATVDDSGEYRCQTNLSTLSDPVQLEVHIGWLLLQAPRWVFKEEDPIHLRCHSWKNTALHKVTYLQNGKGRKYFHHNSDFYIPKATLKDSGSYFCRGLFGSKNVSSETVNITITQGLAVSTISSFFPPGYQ
UniProt P12318, residues 34-217: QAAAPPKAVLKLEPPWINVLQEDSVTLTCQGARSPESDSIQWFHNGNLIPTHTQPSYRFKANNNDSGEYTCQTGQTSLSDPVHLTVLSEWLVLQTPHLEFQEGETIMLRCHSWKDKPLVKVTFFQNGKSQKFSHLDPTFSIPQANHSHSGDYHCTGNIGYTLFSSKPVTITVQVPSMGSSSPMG
UniProt P12314, residues 16-292: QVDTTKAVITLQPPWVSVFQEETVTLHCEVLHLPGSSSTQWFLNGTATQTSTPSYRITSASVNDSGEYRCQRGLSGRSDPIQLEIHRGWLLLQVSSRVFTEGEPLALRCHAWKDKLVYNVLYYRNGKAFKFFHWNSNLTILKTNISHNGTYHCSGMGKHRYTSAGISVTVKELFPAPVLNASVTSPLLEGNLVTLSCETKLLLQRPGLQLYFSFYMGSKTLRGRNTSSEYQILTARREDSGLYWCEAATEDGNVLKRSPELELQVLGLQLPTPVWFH
UniProt P31994, residues 43-217: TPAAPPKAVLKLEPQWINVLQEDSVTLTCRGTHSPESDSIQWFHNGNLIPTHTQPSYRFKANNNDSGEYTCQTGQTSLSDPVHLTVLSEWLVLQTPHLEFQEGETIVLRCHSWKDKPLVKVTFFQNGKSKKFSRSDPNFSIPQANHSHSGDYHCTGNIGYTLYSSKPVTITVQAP
UniProt P02768, residues 25-609: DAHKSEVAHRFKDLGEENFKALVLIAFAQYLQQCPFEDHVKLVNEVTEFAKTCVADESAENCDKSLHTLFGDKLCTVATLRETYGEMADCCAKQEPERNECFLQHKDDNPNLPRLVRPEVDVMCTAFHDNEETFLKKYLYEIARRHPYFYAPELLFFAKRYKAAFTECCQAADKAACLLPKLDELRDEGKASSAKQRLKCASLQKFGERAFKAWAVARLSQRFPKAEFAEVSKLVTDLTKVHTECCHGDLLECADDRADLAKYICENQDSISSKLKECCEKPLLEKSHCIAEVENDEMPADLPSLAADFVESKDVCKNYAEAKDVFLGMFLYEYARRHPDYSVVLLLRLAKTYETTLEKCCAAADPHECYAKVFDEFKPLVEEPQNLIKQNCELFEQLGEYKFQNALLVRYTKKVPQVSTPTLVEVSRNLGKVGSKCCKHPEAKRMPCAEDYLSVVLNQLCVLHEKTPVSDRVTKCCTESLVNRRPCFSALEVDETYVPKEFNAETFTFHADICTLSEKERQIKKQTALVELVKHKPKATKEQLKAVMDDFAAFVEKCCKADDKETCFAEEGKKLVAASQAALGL

What was measured:
[1] = target: Recombinant FcγRIIIa (F158) with C-terminus Biotin (human) (UniProt P08637); experiment: split reporter; homogeneous competition assay in solution for FcγRIIa and FcγRIIIa variants: sample competes with IgG-LgBiT tracer for FcγR-Biotin mixed 1:1 with Streptavidin-SmBiT; 30–60 min; PBS with 10% superblock; IC50 equivalent to apparent affinity (KD); both purified
[2] = target: Recombinant FcγRIIa (H131) with C-terminus Biotin (human) (UniProt P12318); experiment: as above
[3] = target: Recombinant FcγRI with C-terminus Biotin (human) (UniProt P12314); experiment: split reporter; homogeneous competition assay in solution for FcγRI: tracer 0.25 nM, target 0.075 nM (FcγRI-Biotin 1:1 with Streptavidin-SmBiT); PBS with 10% superblock; IC50 only a qualitative indicator of binding; both purified
[4] = target: Recombinant FcγRIIb with C-terminus Biotin (human) (UniProt P31994); experiment: split reporter; homogeneous competition assay in solution for FcγRIIb: FcγRIIb-Biotin mixed 4:1 with Streptavidin-SmBiT (tetrameric, avidity); PBS with 10% superblock; IC50 only a qualitative indicator of binding; both purified

Measured: binding

Human Serum Albumin (HSA) (from UniProt P02768 25-609)
no binding: all assays above
